# Measurements reported in the supplement of paper PMC7024190.
# Counter-ions that a name gives are not always drawn. The list shows a part of the results. This data set is noisy: repeats of one test often differ as much as different tests do.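 The cells were human embryonic kidney cells carrying a Renilla luciferase gene, driven by the HSV-TK promoter, on a plasmid put in briefly by transfection. This is the first-round screen of about ten thousand compounds, looking for ones that raise reporter output.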
# System: HEK 293FT
# Assay: log relative Renilla luciferase luminescence (reporter expression vs reference, reference not stated) (log (base not stated)); higher = higher recombinant reporter expression
# Details: 10 µM; time after transfection 48 h
row,SMILES,log
1,COc1cc2c(cc1OC)-c1cc3nc4ccccc4nc3n1C(C)(C)C2,-0.0675
2,CCOC(=O)C1=C(C)NC(=S)NC1c1cccc(O)c1 (stereo not given) [Monastrol],0.0735
3,OCC(CO)N[C@H]1C[C@](O)(CO)[C@@H](O)[C@H](O)[C@H]1O [Voglibose],0.0465
4,Cc1c(OCC(F)(F)F)ccnc1C[S+]([O-])c1nc2ccccc2[nH]1 (stereo not given) [Lansoprazole],0.0217
5,CC1(C)CC(=O)C(C2C3=C(CC(C)(C)CC3=O)Oc3ccccc32)C(=O)C1 (stereo not given),-0.134
6,CC(=O)CCCCn1c(=O)c2c(ncn2C)n(C)c1=O [Pentoxifylline],0.0956
7,COc1ccc2[nH]c([S+]([O-])Cc3ncc(C)c(OC)c3C)nc2c1 (stereo not given) [Omeprazole],-0.199
8,CC(CCc1ccc(O)cc1)NCCc1ccc(O)c(O)c1 (stereo not given) [Dobutamine hydrochloride],-0.00649

# System: HEK 293FT
# Assay: as above
# Details: 10 µM; time after transfection 48 h
# Remark: another data set of the same source
# Protocol: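 HEK 293FT cells transiently transfected with pRL-TK (Renilla luciferase) were treated with compounds at 10 uM and luminescence was read about 42 h later. Values are log relative Renilla luminescence (log base and reference not stated). Single-pass screen; 2080 natural products library.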
row,SMILES,log
1,CC(=O)OC1CCC2(C)C3CCC4C(C)(CCC5C(C)(C)C(OC(C)=O)CCC45C)CC3=CCC2C1(C)C (stereo not given) [Serratenediol diacetate],0.769
2,COc1cc(C(=O)O)cc(OC)c1O [Syringic acid],-0.248
3,CC(C)[C@@H](C)/C=C/[C@@H](C)[C@H]1CC[C@H]2C3=CC[C@H]4C[C@@H](O)CC[C@]4(C)[C@H]3CC[C@]12C [Stellasterol],0.0391
4,"COc1c(O)c(OC)c2oc(-c3ccccc3)cc(=O)c2c1O [5,7-Dihydroxy-6,8-dimethoxyflavone]",-0.0651
5,"CC[C@H](CC[C@@H](C)[C@H]1CC[C@H]2[C@@H]3CC(=O)C4=CC(=O)CC[C@]4(C)[C@H]3CC[C@]12C)C(C)C [Stigmast-4-ene-3,6-dione]",-0.179
6,"C=C[C@H](O)C#CC#C/C=C/CO [(S,E)-Deca-2,9-dien-4,6-diyn-1,8-diol]",-0.115
7,C=C(C)C(O)COc1c2occc2c(OC)c2ccc(=O)oc12 (stereo not given) [Neobyakangelicol],0.0251
8,O=C1CCC(O)(CCO)CC1 [Cleroindicin B],-0.134
9,CC(C)CC[C@@H](O)[C@](C)(O)[C@H]1CC[C@@]2(O)C3=CC(=O)[C@@H]4C[C@@H](O)[C@@H](O)C[C@]4(C)[C@H]3CC[C@]12C [Ponasterone A],0.0623
10,C=C1C(=O)[C@]23C[C@H]1C[C@H](OC(C)=O)[C@H]2[C@]1(C)[C@@H](OC(C)=O)C[C@H](O)C(C)(C)[C@H]1C(=O)[C@@H]3OC(C)=O [Adenanthin],-1.38
11,O=C1c2c(O)cc(O)cc2O[C@H](c2ccc(O)cc2)[C@H]1O [Aromadendrin],0.00461
12,C=CC(C)(C)c1c(OC(C)=O)cc2oc3c(CC=C(C)C)c(OC(C)=O)c(OC(C)=O)cc3c(=O)c2c1O [Cudraxanthone L triacetate],-0.163
13,C=Cc1cncc2c1CCOC2=O [Gentianine],0.156
14,C=C(C(=O)O)[C@H]1CC=C(CCC(C)=O)[C@@H](C)CC1 [4-Oxobedfordiaic acid],-0.0297
15,C=C(C(=O)O)[C@@H]1CC[C@@]2(C)CCCC(=C)[C@@H]2C1 [beta-Costic acid],-0.212
16,CC(=O)CC/C=C(\C)CC/C=C(\C)CC/C=C(\C)CC/C=C(\C)CC/C=C(\C)CC/C=C(\C)CC/C=C(\C)CCC=C(C)C [Bombiprenone],-0.138

row,SMILES,log
1,"C[C@H](CC[C@@H]1OC(C)(C)OC1(C)C)[C@H]1CC[C@@]2(C)[C@@H]3CC[C@H]4C(C)(C)[C@@H](O)CC[C@@]45C[C@@]35CC[C@]12C [(24S)-Cycloartane-3,24,25-triol 24,25-acetonide]",-0.462
2,O=c1c2ccccc2nc2n1CCc1c-2[nH]c2ccccc12 [Rutaecarpine],-0.00754
3,COc1cc(-c2oc3cc(OC)c(OC)c(O)c3c(=O)c2OC)ccc1O [Chrysosplenetin],0.107
4,CC(C)[C@@]1(O)C[C@@]2(O)[C@@]3(C)C[C@]4(O)O[C@@]5([C@H](O)[C@@H](C)CC[C@]35O)[C@@]2(O)[C@@]41C [Cinnzeylanol],-0.0904
5,O=C(N[C@@H](Cc1ccccc1)C(=O)N[C@H](CO)Cc1ccccc1)c1ccccc1 [Aurantiamide],-0.053
6,COc1cc(/C=C/CO)cc(OC)c1O[C@@H]1O[C@H](CO)[C@@H](O)[C@H](O)[C@H]1O [Syringin],-0.259
7,COc1cc(C2Oc3cc4oc(=O)ccc4cc3OC2COC(C)=O)cc(OC)c1OC(C)=O (stereo not given) [Moluccanin diacetate],-0.159
8,"COc1cc2ccc(=O)oc2c(OC)c1OC [6,7,8-Trimethoxycoumarin]",-0.0248
9,CC1(C)C=C(CO)[C@]2(C)[C@H]3CC=C4[C@@H]5[C@H](O)C(C)(C)CC[C@]5(C(=O)O)CC[C@@]4(C)[C@]3(C)CC[C@@H]12 [Sculponeatic acid],-0.422
10,O=C(OCC1=C[C@@H](O)[C@@H]2C=CO[C@@H](O[C@@H]3O[C@H](CO)[C@@H](O)[C@H](O)[C@H]3O)[C@H]12)c1ccc(O)cc1 [Agnuside],-0.0185
11,CC(=O)O[C@H]1C[C@H]2OC[C@@]2(OC(C)=O)[C@H]2[C@H](OC(C)=O)[C@]3(C(C)(C)O)C[C@H](O)C(C)=C3[C@@H](OC(=O)c3ccccc3)[C@H](OC(C)=O)[C@]12C [Taxayunnansin A],-0.0163
12,COc1c(O)cc2oc(-c3ccc(O)cc3)cc(=O)c2c1O [Hispidulin],0.012
13,"CC(C)C1=C[C@H]2[C@@H]3[C@@H](C(C(C)C)=CC(=O)[C@]3(C)O)[C@@H]1C(=O)[C@]2(C)O [3,10-Dihydroxy-5,11-dielmenthadiene-4,9-dione]",0.116
14,C=C1C(=O)O[C@H]2C=C(C)[C@@H]3CC[C@](C)(O)[C@@H]3C[C@H]12 [4-Epi-isoinuviscolide],-0.123
15,O=c1c2cc(O)ccc2nc2n1CC[C@@H]2O [Vasicinolone],-0.217
16,COC(=O)C1=COC(OC2OC(CO)C(O)C(O)C2O)C2C(C)(O)CC(O)C12O (stereo not drawn) [6beta-Hydroxyipolamiide],0.286

# Reprinted at random: 3 entries already listed.
row,SMILES,log
5,O=C(N[C@@H](Cc1ccccc1)C(=O)N[C@H](CO)Cc1ccccc1)c1ccccc1 [Aurantiamide],-0.053
15,O=c1c2cc(O)ccc2nc2n1CC[C@@H]2O [Vasicinolone],-0.217
2,COc1cc(C(=O)O)cc(OC)c1O [Syringic acid],-0.248
